Results: publication PMC11082977
Read-outs that look alike come from different tables or passages of the source. Results are given in words; binding and its absence hold for the method and conditions named. In cells and extracts the contact can be indirect. Some entries that bind do so weakly or less than the wild type.

Sequences of proteins named here, by UniProt entry; tags and fusion partners are left off. A change or cut given only in a name is not applied to a line headed by its entry. A line that says so, or that is headed by a name, gives the form on record, which may keep a tag or linker. Residues count along the entry.
FLAG-tagged human IRE1α (stably transduced in HMC-1.2 IRE1α−/− cells) (O75460, residues 19-977): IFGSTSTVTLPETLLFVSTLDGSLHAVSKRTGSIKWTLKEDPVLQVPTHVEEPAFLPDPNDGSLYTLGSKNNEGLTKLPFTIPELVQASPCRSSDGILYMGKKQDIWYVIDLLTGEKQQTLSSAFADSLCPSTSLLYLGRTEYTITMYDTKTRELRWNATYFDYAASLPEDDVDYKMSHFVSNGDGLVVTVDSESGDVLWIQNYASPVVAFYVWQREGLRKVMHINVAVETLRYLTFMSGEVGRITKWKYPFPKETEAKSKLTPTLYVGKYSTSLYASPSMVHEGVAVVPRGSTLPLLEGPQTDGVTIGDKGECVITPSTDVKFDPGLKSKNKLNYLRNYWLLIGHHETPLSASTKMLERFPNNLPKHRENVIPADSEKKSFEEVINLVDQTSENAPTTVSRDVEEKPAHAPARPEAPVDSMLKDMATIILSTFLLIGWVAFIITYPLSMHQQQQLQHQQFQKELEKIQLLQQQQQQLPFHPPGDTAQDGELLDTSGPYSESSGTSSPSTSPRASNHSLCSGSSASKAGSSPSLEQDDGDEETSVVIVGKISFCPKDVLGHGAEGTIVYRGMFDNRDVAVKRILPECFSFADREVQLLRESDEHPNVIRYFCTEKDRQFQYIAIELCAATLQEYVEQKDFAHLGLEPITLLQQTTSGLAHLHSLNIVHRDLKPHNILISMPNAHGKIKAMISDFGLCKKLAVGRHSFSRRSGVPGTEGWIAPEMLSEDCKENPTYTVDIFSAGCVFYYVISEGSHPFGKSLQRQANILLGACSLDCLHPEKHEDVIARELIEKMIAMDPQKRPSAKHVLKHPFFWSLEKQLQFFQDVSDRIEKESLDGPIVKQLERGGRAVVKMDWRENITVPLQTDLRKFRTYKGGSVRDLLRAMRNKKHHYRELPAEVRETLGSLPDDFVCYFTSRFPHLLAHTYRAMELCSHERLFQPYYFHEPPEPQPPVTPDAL
Flag_HsIRE1α_delta589-903 (O75460, form named): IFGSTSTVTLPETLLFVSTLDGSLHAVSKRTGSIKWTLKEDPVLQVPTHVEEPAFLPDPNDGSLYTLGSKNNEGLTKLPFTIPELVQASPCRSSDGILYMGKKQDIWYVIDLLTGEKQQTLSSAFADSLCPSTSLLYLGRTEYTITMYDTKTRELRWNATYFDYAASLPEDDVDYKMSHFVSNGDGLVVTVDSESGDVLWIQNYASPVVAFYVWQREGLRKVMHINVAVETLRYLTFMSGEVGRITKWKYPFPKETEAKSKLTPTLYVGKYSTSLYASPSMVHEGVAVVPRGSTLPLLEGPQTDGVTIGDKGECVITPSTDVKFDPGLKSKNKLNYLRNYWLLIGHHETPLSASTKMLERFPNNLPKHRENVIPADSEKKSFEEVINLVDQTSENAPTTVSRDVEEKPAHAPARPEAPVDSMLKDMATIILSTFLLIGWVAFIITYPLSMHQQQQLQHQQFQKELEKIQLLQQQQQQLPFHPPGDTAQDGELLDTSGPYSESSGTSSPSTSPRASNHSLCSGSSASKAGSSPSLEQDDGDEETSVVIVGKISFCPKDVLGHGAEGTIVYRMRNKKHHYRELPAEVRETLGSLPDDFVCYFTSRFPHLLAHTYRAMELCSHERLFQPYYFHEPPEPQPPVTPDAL
IRE1α kinase-dead (KD) construct hIRE1α K599A (O75460, form named): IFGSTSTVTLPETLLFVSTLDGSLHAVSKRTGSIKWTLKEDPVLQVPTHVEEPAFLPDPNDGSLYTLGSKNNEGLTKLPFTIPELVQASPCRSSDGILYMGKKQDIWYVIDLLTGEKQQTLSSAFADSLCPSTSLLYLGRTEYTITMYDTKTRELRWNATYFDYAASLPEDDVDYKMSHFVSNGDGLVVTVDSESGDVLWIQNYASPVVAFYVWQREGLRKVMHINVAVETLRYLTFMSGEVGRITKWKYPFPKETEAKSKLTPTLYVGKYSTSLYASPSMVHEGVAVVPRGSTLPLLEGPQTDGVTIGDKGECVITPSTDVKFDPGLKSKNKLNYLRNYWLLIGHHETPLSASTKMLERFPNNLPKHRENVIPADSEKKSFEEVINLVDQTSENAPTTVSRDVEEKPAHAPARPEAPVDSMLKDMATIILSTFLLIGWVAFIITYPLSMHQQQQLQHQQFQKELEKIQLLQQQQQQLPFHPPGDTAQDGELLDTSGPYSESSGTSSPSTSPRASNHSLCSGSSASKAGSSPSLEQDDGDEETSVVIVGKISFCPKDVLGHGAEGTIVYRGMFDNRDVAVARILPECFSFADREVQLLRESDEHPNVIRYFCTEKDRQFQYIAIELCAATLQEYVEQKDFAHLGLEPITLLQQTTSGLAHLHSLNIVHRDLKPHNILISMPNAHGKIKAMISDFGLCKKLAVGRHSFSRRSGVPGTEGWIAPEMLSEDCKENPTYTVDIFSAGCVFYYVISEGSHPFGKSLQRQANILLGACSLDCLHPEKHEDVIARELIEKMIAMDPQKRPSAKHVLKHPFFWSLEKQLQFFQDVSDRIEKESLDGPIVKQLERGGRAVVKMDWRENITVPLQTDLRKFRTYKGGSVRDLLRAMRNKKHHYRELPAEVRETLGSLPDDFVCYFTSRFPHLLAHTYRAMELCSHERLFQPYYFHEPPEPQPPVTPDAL

Columns and labels:
[1] = molecular target: GFP-tagged human VCP (VCP(wt)-EGFP) (human) (UniProt P55072); assay: co-IP; GFP-tagged VCP and FLAG-tagged IRE1α overexpressed in HEK293 cells; precipitated with anti-FLAG beads or with GFP-Trap, immunoblot
[2] = molecular target: Flag_HsIRE1α_delta589-903 (human) (UniProt O75460); assay: co-IP; IRE1α variants with hVCP-GFP (Figure S3E); cells and beads not told in the text shown
[3] = molecular target: IRE1α kinase-dead (KD) construct hIRE1α K599A (human) (UniProt O75460); assay: as above
[4] = molecular target: FLAG-tagged human IRE1α (overexpressed in HEK293 cells) (human) (UniProt O75460); assay: co-IP; GFP-tagged VCP and FLAG-tagged IRE1α overexpressed in HEK293 cells; precipitated with anti-FLAG beads or with GFP-Trap, immunoblot
[5] = molecular target: endogenous IRE1α (parental HMC-1.2 cells) (human (endogenous in HMC-1.2)) (UniProt O75460); assay: co-IP; endogenous proteins in parental HMC-1.2 cells (Figure S3D); which one was precipitated is not told in the text shown; called ubiquitin-dependent
[6] = molecular target: FLAG-tagged human IRE1α (stably transduced in HMC-1.2 IRE1α−/− cells) (human) (UniProt O75460); assay: co-IP; FLAG-hIRE1α stably in HMC-1.2 IRE1α−/− cells, precipitated with anti-FLAG M2 magnetic beads from RIPA lysates, endogenous partners by immunoblot; cells treated 3 h with DMSO, 5 µg/mL TM, 1 µM CB-5803, 20 µM MLN7243 or 10 nM bortezomib
[7] = molecular target: FLAG-tagged human IRE1α (stably transduced in HMC-1.2 IRE1α−/− cells) (human) (UniProt O75460); assay: as above; remark: listed apart in the source

With “FLAG-tagged human IRE1α (overexpressed in HEK293 cells) (from UniProt O75460 19-977)” the binding [1] was “binds”.

“GFP-tagged human VCP (VCP(wt)-EGFP) (from UniProt P55072 1-806)” was tested, and the binding [2] was “binds”, the binding [3] was “binds” and the binding [4] was “binds”.

With “valosin-containing protein (VCP), endogenous (from UniProt P55072 1-806)” the binding [5] was “binds” and the binding [6] was “binds”.

B1: metadherin (MTDH), endogenous (protein, UniProt Q86UE4 1-582)
chain: MAARSWQDELAQQAEEGSARLREMLSVGLGFLRTELGLDLGLEPKRYPGWVILVGTGALGLLLLFLLGYGWAAACAGARKKRRSPPRKREEAAAVPAAAPDDLALLKNLRSEEQKKKNRKKLSEKPKPNGRTVEVAEGEAVRTPQSVTAKQPPEIDKKNEKSKKNKKKSKSDAKAVQNSSRHDGKEVDEGAWETKISHREKRQQRKRDKVLTDSGSLDSTIPGIENTITVTTEQLTTASFPVGSKKNKGDSHLNVQVSNFKSGKGDSTLQVSSGLNENLTVNGGGWNEKSVKLSSQISAGEEKWNSVSPASAGKRKTEPSAWSQDTGDANTNGKDWGRSWSDRSIFSGIGSTAEPVSQSTTSDYQWDVSRNQPYIDDEWSGLNGLSSADPNSDWNAPAEEWGNWVDEERASLLKSQEPIPDDQKVSDDDKEKGEGALPTGKSKKKKKKKKKQGEDNSTAQDTEELEKEIREDLPVNTSKTRPKQEKAFSLKTISTSDPAEVLVKNSQPIKTLPPATSTEPSVILSKSDSDKSSSQVPPILQETDKSKSNTKQNSVPPSQTKSETSWESPKQIKKKKKARRET
B1 was tested, and the binding [7] was “binds”.
